No constants are given. Whether binding was seen depends on the method and setting. Binding seen in cells or lysates may run through a third protein. Some binding calls cover weakened binding; strength is not graded here. Tags and fused reporters may be left off the sequences shown.
Columns and labels:
ATP5J2-GFP = molecular target: T1, ATP5J2-GFP (UniProt P56135); experiment: co-IP; GFP or ATP5J2-GFP transfected MLO-Y4 cells; immunoprecipitation with anti-GFP antibody, blot with anti-Cx43 (1:300)
T1 sequence: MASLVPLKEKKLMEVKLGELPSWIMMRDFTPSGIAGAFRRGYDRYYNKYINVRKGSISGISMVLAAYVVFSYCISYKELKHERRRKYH

The chains behind the UniProt entries cited, without tags or fusion partners.
UniProt P23242: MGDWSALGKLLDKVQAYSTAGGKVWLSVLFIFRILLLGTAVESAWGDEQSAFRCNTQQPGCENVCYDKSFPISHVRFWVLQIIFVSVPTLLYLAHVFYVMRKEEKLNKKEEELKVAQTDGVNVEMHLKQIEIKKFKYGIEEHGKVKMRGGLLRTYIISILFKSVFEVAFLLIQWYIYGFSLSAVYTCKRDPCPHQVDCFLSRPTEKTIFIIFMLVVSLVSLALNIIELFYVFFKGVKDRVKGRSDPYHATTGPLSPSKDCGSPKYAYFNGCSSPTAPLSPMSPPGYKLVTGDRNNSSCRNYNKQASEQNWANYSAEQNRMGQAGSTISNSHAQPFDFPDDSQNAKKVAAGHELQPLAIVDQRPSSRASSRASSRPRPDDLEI

[1] = molecular target: T2, ATP5J2-enhanced yellow fluorescent protein (EYFP) (UniProt P56135); experiment: FRET or BRET; Cx43-CFP (donor) and ATP5J2-EYFP (acceptor) co-transfected into MLO-Y4 cells, 48 hr, confocal microscopy, FRET index by the ImageJ FRET analysis plugin
T2 sequence: T1 sequence

binding (ATP5J2-GFP)	binding [1]	Substance
binds	–	Connexin 43 (Cx43) (from UniProt P23242 1-382)
–	binds	Cx43-cyan fluorescent protein (CFP) (from UniProt P23242 1-382)

Reference: paper PMC9642995
